Data: patent publication US20190375810A1
No constants are given. Whether binding was seen depends on the method and setting. Some binding calls cover weakened binding; strength is not graded here.

Columns and labels:
[1] = target: T1, Soluble mouse EPOR chimera protein (R&D Systems) (mouse) (UniProt P14753); test: SPR (Reichert SR7500C), mouse EPOR chimera amine-coupled to the chip, peptide injected at three concentrations
T1 sequence (looked up): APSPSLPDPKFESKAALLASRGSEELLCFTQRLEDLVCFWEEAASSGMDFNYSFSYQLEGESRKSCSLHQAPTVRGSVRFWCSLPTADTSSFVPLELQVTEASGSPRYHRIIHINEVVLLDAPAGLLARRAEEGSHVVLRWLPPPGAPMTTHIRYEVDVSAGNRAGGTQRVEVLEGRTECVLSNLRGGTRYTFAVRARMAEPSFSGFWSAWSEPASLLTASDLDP

[2] = target: T1, Soluble mouse EPOR chimera protein (R&D Systems) (mouse); test: SPR, EPOR chimera on chip

KKAVSGLKTLTHILRALGAQKEAI [ML4-1]
binding [1]: binds
binding [2]: binds
